Measurements published in PubChem BioAssay AID720504 (National Center for Advancing Translational Sciences (NCATS), 2013).
Among all 360,000 compounds or so, about 10,000 (2.8%) were called active. This list was built around the results that the source calls inconclusive (neither active nor inactive); the mix of calls is not that of the screen. Calls follow the shape of the dose curve; as a rule, active = well fitted inhibition curve with a large enough effect; inconclusive = small, poorly fitted or top-dose-only effect; inactive = flat fitted curve, though single readings scatter. Where the call is inconclusive, the potency comes from a doubtful curve fit.
% is scaled to controls: 0 for no effect and ±100 for the full control effect; potency is read from the fitted curve at half-maximal effect.
Also: nearly all actives have a fitted effect of over 65% in size.
For max response, negative = inhibition in this document: series mostly up to about 57 µM.

Sequences of proteins named here, by UniProt entry; tags and fusion partners are left off.
UniProt P53350, whole entry, looked up: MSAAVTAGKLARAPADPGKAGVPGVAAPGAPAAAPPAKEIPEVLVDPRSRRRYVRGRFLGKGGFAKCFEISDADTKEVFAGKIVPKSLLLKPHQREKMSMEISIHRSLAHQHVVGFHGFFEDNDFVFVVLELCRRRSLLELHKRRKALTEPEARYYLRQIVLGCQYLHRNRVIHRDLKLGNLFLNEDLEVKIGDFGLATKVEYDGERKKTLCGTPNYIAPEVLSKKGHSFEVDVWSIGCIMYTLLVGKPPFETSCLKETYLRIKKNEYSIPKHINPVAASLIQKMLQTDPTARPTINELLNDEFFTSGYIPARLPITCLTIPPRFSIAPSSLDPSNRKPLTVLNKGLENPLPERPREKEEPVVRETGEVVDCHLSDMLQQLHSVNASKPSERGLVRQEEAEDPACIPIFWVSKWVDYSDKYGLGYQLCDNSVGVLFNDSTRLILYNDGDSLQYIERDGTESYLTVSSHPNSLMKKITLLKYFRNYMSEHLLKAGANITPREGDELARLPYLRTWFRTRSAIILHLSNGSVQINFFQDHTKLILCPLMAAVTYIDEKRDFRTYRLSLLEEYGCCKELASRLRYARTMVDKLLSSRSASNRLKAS

These compounds were tested against Serine/threonine-protein kinase PLK1 (Homo sapiens) (UniProt P53350) (assay: qHTS for Inhibitors of PLK1-PDB (polo-like kinase 1 - polo-box domain): Primary Screen). Conditions: Plk1 PBD binding of FITC phosphopeptide, fluorescence polarization.
For `Cc1ccc(/C=C2/Sc3ccc(C(=O)N4CCC5(CC4)OCCO5)cc3NC2=O)cc1`, the Potency was inconclusive: 33.6 µM [inhibitor, single point].
With `COc1ccc(C(=O)O)cc1OC` the max response, negative = inhibition was inactive: -0.101%.
In the case of `c1ccc(-c2ccc(-c3n(-c4ccccn4)c4ccccc4[n+]3-c3ccccn3)cc2)cc1`, the max response, negative = inhibition is reported as inactive: -7.19%.
`CN1CCN(C(=S)c2ccc([N+](=O)[O-])cc2)CC1` was tested, and the Potency was active: 5.32 µM.
With `COc1cc(OC)c(OC)cc1/C=C1\C(=O)NC(=O)N(Cc2ccccc2)C1=O` the Potency was active: 2.67 µM.
With `CN1CC=C(/C=C/c2ccc(-c3ccccc3)cc2)CC1` the max response, negative = inhibition was inactive: -9.44%.
With `CC12CC(c3ccccc3O1)C(C(=O)OCc1ccccc1)C(=O)N2` (stereo unspecified) the Potency was inconclusive: 8.44 µM [inhibitor, single point].
`C=CCn1c(O)c(C(CC)=Nc2ccc(N(C)C)cc2)c(=O)[nH]c1=O` was tested, and the max response, negative = inhibition was inactive: 5.85%.
In the case of `CCOC(=O)[C@]12Cc3c(cc(OC)c(OC)c3OC)[C@H]1N(C)C(=O)c1cc(OC)ccc12`, the Potency is reported as active: 13.4 µM.
For `COc1ccc(OC)c(-n2c(O)c(/C=C3\C=Nc4ccccc43)c(=O)[nH]c2=O)c1`, the Potency was active: 9.47 µM.
`Cc1ccc(OCCOc2cccc(C=C3C(=O)NC(=O)NC3=O)c2)cc1` was tested, and the Potency was active: 2.67 µM.
With `CCOC(=O)C1=CC(=C2C(=O)N(CC)C(=S)N(CC)C2=O)c2ccccc2O1` the Potency was inconclusive: 21.2 µM [inhibitor, partial curve].
With `Cc1c(C(c2ccc(Cl)cc2Cl)c2c(O)c3ccccc3oc2=O)c(=O)n(-c2ccccc2)n1C` (stereo unspecified) the max response, negative = inhibition was inactive: 1.63%.
In the case of `CCN(CCCl)Cc1ccccc1Br`, the Potency is reported as inconclusive: 29.9 µM [inhibitor, partial curve].
`CC(C)NC1C2CCC(CC2)C1(O)c1ccc(Cl)c(Cl)c1` (stereo unspecified) was tested, and the max response, negative = inhibition was inactive: 2.78%.
With `O=c1cccc2n1CC1CC2CN(c2ncnc3c2cnn3-c2ccccc2)C1` (stereo unspecified) the max response, negative = inhibition was inactive: -9.28%.
For `COC(=O)c1ccc(C(=O)OC)c(NC(=O)Oc2ccccc2)c1`, the Potency was inconclusive: 21.2 µM [inhibitor, partial curve].
In the case of `CNC(=O)Oc1cccc(-c2cn3cc(OC(=O)NC)ccc3n2)c1`, the Potency is reported as inconclusive: 26.7 µM [inhibitor, partial curve].
For `COc1ccc(CCn2c(O)c(C=NCc3cccnc3)c(=O)[nH]c2=O)cc1OC`, the Potency was active: 26.7 µM.
With `COc1ccc(OC)c(-n2c(O)c(/C=C3\C(C)=Nc4ccccc43)c(=O)[nH]c2=O)c1` the Potency was inconclusive: 15 µM [inhibitor, partial curve].
With `C[C@H](CCC(=O)O)[C@H]1CC[C@H]2[C@@H]3CC[C@@H]4C[C@H](O)CC[C@]4(C)[C@H]3CC[C@]12C` the Potency was active: 21.2 µM.
